PubChem BioAssay AID1259254 | NCATS | 2017

Screen: 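Finding genes that stop cells copying their DNA twice in one cycle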 (primary screen)
Cell system: human HCT116 colorectal cancer cells
Knock-down reagent: single siRNA against human genes
Duration: 3 days
Measurement: 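Imaged Hoechst DNA stain sorts each cell into a cycle phase by DNA amount; per plate, G2 fraction set to 0% for non-targeting and 100% for GMNN siRNA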
Scale: G2 robust z-score and G2 cells, % of GMNN control: higher = more G2 cells, more excess DNA replication
Hit rule: 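Active siRNAs have a G2 robust z of 5 or more median absolute deviations over the median, which in these data means about 38% or higher of GMNN control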
This is one part, drawn at random, of about 59,000 deposited reagents. In the full data, about 1,550 (2.6%) got an active call. 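G2 share is only a proxy for re-replication; each gene was hit by three separate siRNAs, and active genes were retested.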 Unmarked entries are inactive. The numbers tell different reagents against one gene apart. Further read-outs or replicates are left out here. The record does not give: the amount of reagent.

Target gene | siRNA no. | G2 robust z-score | G2 cells, % of GMNN control
TGFB2 (GeneID 7042) | 1 | 7.28 (active) | 54.2
TGFB2 (GeneID 7042) | 2 | 0.678 | 7.73
TGFB2 (GeneID 7042) | 3 | 0.345 | 5.4
SGO1 (GeneID 151648) | 1 | 5.9 (active) | 44.4
SGO1 (GeneID 151648) | 2 | 2.61 | 21.3
SGO1 (GeneID 151648) | 3 | 8.2 (active) | 60.6
GRM7 (GeneID 2917) | 1 | -0.332 | 0.629
GRM7 (GeneID 2917) | 2 | 1.59 | 14.2
GRM7 (GeneID 2917) | 3 | 1.67 | 14.7
FTMT (GeneID 94033) | 1 | 7.73 (active) | 57.4
FTMT (GeneID 94033) | 2 | 0.391 | 5.72
FTMT (GeneID 94033) | 3 | -0.723 | -2.12
DDX53 (GeneID 168400) | 1 | -0.786 | -2.56
DDX53 (GeneID 168400) | 2 | -0.00522 | 2.93
DDX53 (GeneID 168400) | 3 | -0.241 | 1.28
NOTO (GeneID 344022) | 1 | 0.232 | 4.6
NOTO (GeneID 344022) | 2 | 0.444 | 6.09
NOTO (GeneID 344022) | 3 | 5.48 (active) | 41.5
TAB1 (GeneID 10454) | 1 | 0.982 | 9.88
TAB1 (GeneID 10454) | 2 | -0.316 | 0.741
TAB1 (GeneID 10454) | 3 | 0.967 | 9.77
ARTN (GeneID 9048) | 1 | 0.873 | 9.11
ARTN (GeneID 9048) | 2 | -0.308 | 0.8
ARTN (GeneID 9048) | 3 | 2.49 | 20.5
XCL1 (GeneID 6375) | 1 | -0.198 | 1.57
XCL1 (GeneID 6375) | 2 | -0.382 | 0.278
XCL1 (GeneID 6375) | 3 | -0.399 | 0.161
FAM219A (GeneID 203259) | 1 | 0.43 | 5.99
FAM219A (GeneID 203259) | 2 | -1.13 | -5
FAM219A (GeneID 203259) | 3 | -0.0255 | 2.79
CHRAC1 (GeneID 54108) | 1 | 0.15 | 4.02
CHRAC1 (GeneID 54108) | 2 | 3.93 | 30.6
CHRAC1 (GeneID 54108) | 3 | -0.575 | -1.08
ALG14 (GeneID 199857) | 1 | 3.23 | 25.7
ALG14 (GeneID 199857) | 2 | 3.54 | 27.9
ALG14 (GeneID 199857) | 3 | -0.375 | 0.327
TNP2 (GeneID 7142) | 1 | -0.765 | -2.42
TNP2 (GeneID 7142) | 2 | 3.66 | 28.7
TNP2 (GeneID 7142) | 3 | 2.09 | 17.6
GATAD1 (GeneID 57798) | 1 | 1.08 | 10.6
GATAD1 (GeneID 57798) | 2 | 0.669 | 7.67
GATAD1 (GeneID 57798) | 3 | 0.901 | 9.3

5 of these entries, set out differently.
| Target gene | siRNA no. | G2 robust z-score | G2 cells, % of GMNN control |
| --- | --- | --- | --- |
| GRM7 (GeneID 2917) | 2 | 1.59 | 14.2 |
| GRM7 (GeneID 2917) | 3 | 1.67 | 14.7 |
| FTMT (GeneID 94033) | 1 | 7.73 (active) | 57.4 |
| FTMT (GeneID 94033) | 2 | 0.391 | 5.72 |
| FTMT (GeneID 94033) | 3 | -0.723 | -2.12 |

Further results follow:
Target gene | siRNA no. | G2 robust z-score | G2 cells, % of GMNN control
ITIH4 (GeneID 3700) | 1 | -0.605 | -1.29
ITIH4 (GeneID 3700) | 2 | -0.205 | 1.52
ITIH4 (GeneID 3700) | 3 | 0.104 | 3.7
SLC22A3 (GeneID 6581) | 1 | 0.122 | 3.83
SLC22A3 (GeneID 6581) | 2 | -0.855 | -3.05
SLC22A3 (GeneID 6581) | 3 | -1.4 | -6.87
SLC25A46 (GeneID 91137) | 1 | -0.179 | 1.71
SLC25A46 (GeneID 91137) | 2 | 0.112 | 3.76
SLC25A46 (GeneID 91137) | 3 | -0.183 | 1.68
ZNF30 (GeneID 90075) | 1 | -0.174 | 1.75
ZNF30 (GeneID 90075) | 2 | -0.369 | 0.37
ZNF30 (GeneID 90075) | 3 | 0.977 | 9.84
SPEN (GeneID 23013) | 1 | -0.666 | -1.72
SPEN (GeneID 23013) | 2 | -0.284 | 0.97
SPEN (GeneID 23013) | 3 | -1.2 | -5.46
NFU1 (GeneID 27247) | 1 | -0.956 | -3.76
NFU1 (GeneID 27247) | 2 | 0.47 | 6.28
NFU1 (GeneID 27247) | 3 | -0.561 | -0.979
LRCH4 (GeneID 4034) | 1 | 2.09 | 17.6
LRCH4 (GeneID 4034) | 2 | 4.15 | 32.2
LRCH4 (GeneID 4034) | 3 | -0.739 | -2.24
EIF4E2 (GeneID 9470) | 1 | 0.711 | 7.97
EIF4E2 (GeneID 9470) | 2 | -1.06 | -4.46
EIF4E2 (GeneID 9470) | 3 | -0.602 | -1.27
NUDT2 (GeneID 318) | 1 | -0.0593 | 2.55
NUDT2 (GeneID 318) | 2 | -1.74 | -9.25
NUDT2 (GeneID 318) | 3 | -1.34 | -6.46
